In doi:10.1101/2021.09.09.459609:

Molecular target: T1, eGFP-tagged Myosin-1b (pEGFP Myo1b) (UniProt Q05096)
T1 sequence: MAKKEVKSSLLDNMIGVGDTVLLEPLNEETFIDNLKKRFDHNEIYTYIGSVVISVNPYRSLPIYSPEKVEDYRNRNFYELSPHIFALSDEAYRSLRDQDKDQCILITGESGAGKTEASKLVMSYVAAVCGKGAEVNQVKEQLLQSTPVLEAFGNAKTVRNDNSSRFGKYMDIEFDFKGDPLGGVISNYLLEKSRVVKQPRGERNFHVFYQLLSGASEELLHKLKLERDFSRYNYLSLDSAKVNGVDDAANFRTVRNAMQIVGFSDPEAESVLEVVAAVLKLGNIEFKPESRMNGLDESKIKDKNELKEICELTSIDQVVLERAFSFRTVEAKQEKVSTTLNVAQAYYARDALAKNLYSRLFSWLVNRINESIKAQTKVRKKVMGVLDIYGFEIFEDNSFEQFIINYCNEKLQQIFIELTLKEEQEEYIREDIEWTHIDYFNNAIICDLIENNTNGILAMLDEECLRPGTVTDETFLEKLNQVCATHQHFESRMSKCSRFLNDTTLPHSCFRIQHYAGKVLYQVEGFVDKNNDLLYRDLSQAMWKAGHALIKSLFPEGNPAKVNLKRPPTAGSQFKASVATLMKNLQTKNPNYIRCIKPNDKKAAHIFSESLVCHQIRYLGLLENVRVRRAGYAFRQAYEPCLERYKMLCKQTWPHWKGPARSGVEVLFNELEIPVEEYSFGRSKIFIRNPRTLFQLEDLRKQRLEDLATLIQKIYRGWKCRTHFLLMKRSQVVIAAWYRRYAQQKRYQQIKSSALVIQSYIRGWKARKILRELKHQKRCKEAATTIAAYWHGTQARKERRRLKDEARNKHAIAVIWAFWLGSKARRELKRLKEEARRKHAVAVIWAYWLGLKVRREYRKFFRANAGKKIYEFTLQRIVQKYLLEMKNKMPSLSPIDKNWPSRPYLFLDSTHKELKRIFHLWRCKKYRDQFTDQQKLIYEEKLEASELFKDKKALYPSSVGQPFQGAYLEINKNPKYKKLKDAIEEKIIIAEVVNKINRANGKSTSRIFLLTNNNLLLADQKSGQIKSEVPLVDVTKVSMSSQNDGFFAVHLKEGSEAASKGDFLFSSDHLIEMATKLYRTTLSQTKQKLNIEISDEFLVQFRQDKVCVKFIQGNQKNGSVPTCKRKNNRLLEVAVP
Test: affinity purification with mass spectrometry

B1: UNC45A (protein, UniProt Q99KD5 1-944)
chain: MTVSGPETPEPRPSDPGASSAEQLRKEGNELFKCGDYEGALTAYTQALSLGATPQDQAILHRNRAACHLKLEDYSKAESEASKAIEKDGGDVKALYRRSQALEKLGRLDQAVLDLKRCVSLEPKNKVFQESLRNIGGQIQEKVRYMSSTDAKVEQMFQILLDPKEKGTEKKQKASQNLVVLAREDAGAEKIFRSNGVQLLQRLLDTEETDLMLAALRTLVGICSEHQSRTVATLSVLGTRRVVSILGVENQAVSLAACHLLQVIFDALKEGVKKGFRGKEGAIIVDPARELKVLINSLLELLTEVGVSGQGRDNALTLLIKMVPRKSPKDPNNSLTLWVIDQGLKKILEVGGSLQDAAGELTVTANSRMSASILLSKLFDDLKCDAERENFHRLCENYIRNWFEGHGLAGKLRAIQTVSCLLQGPCDAGNRALELSGVMESVIALCASEREEEQLVAVEALIHAAGKAKRASFITANGVSLLKDLYKGSERDSIRIRALVGLCKLGSAGGTDFSMKQFAEGSTLKLAKQCRKWLCNDQIDAGTRRWAVEGLAYLTFDADVKEEFVEDEAALKALFQLSRSEERSVLFAVGSALVNCTNSYDYEEPDPKMVELAKYAKQHVPEQHPKDKPSFVRARVKKLLAAGVVSAMTCMVKTESPVLTNSCRELLSRVFLALVEEVEDRGTVVAQGGGKALLPLALEGTDVGQTKAAQALAKLTITSNPEMTFPGERIYEVVRPLVSLLHLSCSGLQNFEALMALTNLAGISERLRQKILKEKAVPMIEGYMFEEHEMIRRAATECMCNLAMSKEVQDLFEAQGNDRLKLLVLYSGEDDELLRRAAAGGLAMLTSMRPALCSRIPQVTTHWLEILQALLLSPNQELQHRGTVVVLNMMQSSKEIAGTLMESEVLEILSVLAKGEESPVTRAAAACLEKAVEYRLIQPNQDGE
- binding: binds

No constants are given. Whether binding was seen depends on the method and setting. Binding seen in cells or lysates may run through a third protein. Here binding means that the protein was enriched with, or labelled near, the bait; the list need not be complete. Where a sequence is shown, tags or fusion partners need not be part of it.
